Results are given in words; binding and its absence hold for the method and conditions named. Some binding calls cover weakened binding; strength is not graded here. Sequences can lack the tags named with a protein.
How the values were obtained:
[1] = target: T1, recombinant human GDF-8 (human) (UniProt O14793); test: MSD platform-based assay (figure legend)
T1 sequence (looked up): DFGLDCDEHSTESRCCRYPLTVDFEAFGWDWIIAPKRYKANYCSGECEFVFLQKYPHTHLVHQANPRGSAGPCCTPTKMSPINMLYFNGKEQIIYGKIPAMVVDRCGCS

[2] = target: T1, recombinant human GDF-8 (human); test: MSD plate assay; capture: recombinant GDF-8 on the plate; 8x serial dilutions of the purified protein; detect: anti-Fc
[3] = target: T1, recombinant human GDF-8 (human); test: MSD plate assay: GDF-8 coated, 8x serial dilutions of purified ACVR2B-Fc, detection with anti-human Fc antibody and SULFO-TAG secondary antibody

Measured: binding

B1: recombinant human ACVR2B-Fc fusion protein (Fc fusion, not shown: a dimerising Fc or GST)
chain: SGRGEAETRECIYYNANWELERTNQSGLERCEGEQDKRLHCYASWRNSSGTIELVKKGCWLDDFNCYDRQECVATEENPQVYFCCCEGNFCNERFTHLPEAGGPEVTYEPPPTAPTLLT
binds: all assays above
